Reference: publication PMC11265163

Sequences of proteins named here, by UniProt entry; tags and fusion partners are left off.
UniProt Q9UKK3: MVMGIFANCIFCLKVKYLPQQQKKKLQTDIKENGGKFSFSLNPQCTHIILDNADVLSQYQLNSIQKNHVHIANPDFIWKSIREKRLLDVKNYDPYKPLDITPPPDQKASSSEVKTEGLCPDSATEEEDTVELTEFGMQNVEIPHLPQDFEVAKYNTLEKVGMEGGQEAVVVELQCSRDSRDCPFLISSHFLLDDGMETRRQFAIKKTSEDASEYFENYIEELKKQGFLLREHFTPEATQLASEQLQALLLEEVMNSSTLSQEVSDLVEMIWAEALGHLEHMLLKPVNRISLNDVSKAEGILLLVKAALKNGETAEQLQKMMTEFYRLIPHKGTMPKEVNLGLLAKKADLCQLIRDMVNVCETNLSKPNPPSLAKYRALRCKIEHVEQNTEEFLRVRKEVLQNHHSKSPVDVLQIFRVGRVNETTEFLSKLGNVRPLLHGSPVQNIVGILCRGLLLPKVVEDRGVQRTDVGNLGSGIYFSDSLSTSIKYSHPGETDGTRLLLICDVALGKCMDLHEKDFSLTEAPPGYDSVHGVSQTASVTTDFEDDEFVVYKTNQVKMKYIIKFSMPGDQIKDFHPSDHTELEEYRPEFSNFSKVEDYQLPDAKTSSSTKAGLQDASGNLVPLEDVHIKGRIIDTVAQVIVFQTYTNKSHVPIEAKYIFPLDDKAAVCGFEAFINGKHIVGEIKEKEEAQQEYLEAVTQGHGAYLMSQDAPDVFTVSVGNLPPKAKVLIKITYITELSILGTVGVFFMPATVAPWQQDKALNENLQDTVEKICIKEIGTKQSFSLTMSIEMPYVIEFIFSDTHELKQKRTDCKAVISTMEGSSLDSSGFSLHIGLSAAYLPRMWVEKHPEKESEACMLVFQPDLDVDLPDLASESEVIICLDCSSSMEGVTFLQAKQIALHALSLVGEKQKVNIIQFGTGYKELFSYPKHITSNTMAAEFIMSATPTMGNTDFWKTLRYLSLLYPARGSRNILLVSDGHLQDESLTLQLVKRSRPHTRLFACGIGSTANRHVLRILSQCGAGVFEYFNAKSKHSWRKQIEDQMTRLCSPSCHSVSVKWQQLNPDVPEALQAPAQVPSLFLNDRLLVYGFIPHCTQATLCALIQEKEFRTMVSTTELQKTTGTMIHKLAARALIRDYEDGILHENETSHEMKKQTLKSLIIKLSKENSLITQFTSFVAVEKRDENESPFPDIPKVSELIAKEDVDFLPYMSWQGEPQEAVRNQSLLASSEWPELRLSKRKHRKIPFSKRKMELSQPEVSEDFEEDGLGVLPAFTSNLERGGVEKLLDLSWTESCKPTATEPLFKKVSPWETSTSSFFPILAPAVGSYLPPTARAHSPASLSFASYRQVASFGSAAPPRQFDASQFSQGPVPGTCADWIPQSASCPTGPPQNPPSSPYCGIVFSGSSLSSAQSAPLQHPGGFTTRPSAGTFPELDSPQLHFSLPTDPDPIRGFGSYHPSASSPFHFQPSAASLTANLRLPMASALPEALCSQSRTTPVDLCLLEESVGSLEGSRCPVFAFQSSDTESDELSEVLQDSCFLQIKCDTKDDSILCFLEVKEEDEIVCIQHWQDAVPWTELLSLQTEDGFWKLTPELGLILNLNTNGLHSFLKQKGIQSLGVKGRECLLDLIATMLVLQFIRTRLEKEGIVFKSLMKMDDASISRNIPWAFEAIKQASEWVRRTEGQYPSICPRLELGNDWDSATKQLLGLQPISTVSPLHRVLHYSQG

Molecular target: PARP4 (human (endogenous in iSAEC-K, A549 and patient-derived lung cell lines)) (UniProt Q9UKK3)
Test: affinity purification with mass spectrometry; immunoprecipitation of endogenous PARP4 from SILAC-labelled extracts of iSAEC-K shControl cells, shPARP4 #1 cells as negative control; forward and reverse experiments; quantitative mass spectrometry

binding: binds
B1: heterogeneous ribonucleoprotein M (hnRNPM) (protein, UniProt P52272 1-730)
chain: MAAGVEAAAEVAATEIKMEEESGAPGVPSGNGAPGPKGEGERPAQNEKRKEKNIKRGGNRFEPYANPTKRYRAFITNIPFDVKWQSLKDLVKEKVGEVTYVELLMDAEGKSRGCAVVEFKMEESMKKAAEVLNKHSLSGRPLKVKEDPDGEHARRAMQKVMATTGGMGMGPGGPGMITIPPSILNNPNIPNEIIHALQAGRLGSTVFVANLDYKVGWKKLKEVFSMAGVVVRADILEDKDGKSRGIGTVTFEQSIEAVQAISMFNGQLLFDRPMHVKMDERALPKGDFFPPERPQQLPHGLGGIGMGLGPGGQPIDANHLNKGIGMGNIGPAGMGMEGIGFGINKMGGMEGPFGGGMENMGRFGSGMNMGRINEILSNALKRGEIIAKQGGGGGGGSVPGIERMGPGIDRLGGAGMERMGAGLGHGMDRVGSEIERMGLVMDRMGSVERMGSGIERMGPLGLDHMASSIERMGQTMERIGSGVERMGAGMGFGLERMAAPIDRVGQTIERMGSGVERMGPAIERMGLSMERMVPAGMGAGLERMGPVMDRMATGLERMGANNLERMGLERMGANSLERMGLERMGANSLERMGPAMGPALGAGIERMGLAMGGGGGASFDRAIEMERGNFGGSFAGSFGGAGGHAPGVARKACQIFVRNLPFDFTWKMLKDKFNECGHVLYADIKMENGKSKGCGVVKFESPEVAERACRMMNGMKLSGREIDVRIDRNA

Results are given in words; binding and its absence hold for the method and conditions named. Binding seen in cells or lysates may run through a third protein. These calls come from enrichment with a bait or labelling near it, and not all partners need be listed.
